B1: GST-JIP-1 fusion protein containing residues 127-202 of JIP-1 (protein, not shown: a dimerising Fc or GST)
chain: PKAESNQDPAPRSQGQGPGTGSGDTYRPKRPTTLNLFPQVPRSQDTLNNNSLGKKHSWQDRVSRSSSPLKTGEQTP
B2: GST fusion protein containing residues 144-202 of JIP-1 (protein, not shown: a dimerising Fc or GST)
chain: PGTGSGDTYRPKRPTTLNLFPQVPRSQDTLNNNSLGKKHSWQDRVSRSSSPLKTGEQTP
B3: GST fusion protein containing residues 135-202 of JIP-1 (protein, not shown: a dimerising Fc or GST)
chain: PAPRSQGQGPGTGSGDTYRPKRPTTLNLFPQVPRSQDTLNNNSLGKKHSWQDRVSRSSSPLKTGEQTP
B4: GST-JIP-1 (residues 127-281), GST fusion of the JNK binding domain (JBD) of JIP-1 (protein, not shown: a dimerising Fc or GST)
chain: PKAESNQDPAPRSQGQGPGTGSGDTYRPKRPTTLNLFPQVPRSQDTLNNNSLGKKHSWQDRVSRSSSPLKTGEQTPPHEHICLSDELPPQGSPVPTQDRGTSTDSPCRRSAATQMAPPSGPPATAPGGRGHSHRDRIHYQADVRLEATEEIYLTP
B5: GST-ATF2 fusion protein (residues 1-109 of ATF2) (protein, UniProt P15336 1-109, looked up, not shown: a dimerising Fc or GST)
chain: MKFKLHVNSARQYKDLWNMSDDKPFLCTAPGCGQRFTNEDHLAVHKHKHEMTLKFGPARNDSVIVADQTPTPTRFLKNCEEVGLFNELASPFENEFKKASEDDIKKMPL
B6: Flag-JIP-1 (Flag epitope-tagged murine JNK interacting protein-1, full length) (protein)
chain: MDYKDDDDKAERESGLGGGAASPPAASPFLGLHIASPPNFRLTHDISLEEFEDEDLSEITDECGISLQCKDTLSLRPPRAGLLSAGSSGSAGSRLQAEMLQMDLIDAAGDTPGAEDDEEEEDDELAAQRPGVGPPKAESNQDPAPRSQGQGPGTGSGDTYRPKRPTTLNLFPQVPRSQDTLNNNSLGKKHSWQDRVSRSSSPLKTGEQTPPHEHICLSDELPPQGSPVPTQDRGTSTDSPCRRSAATQMAPPSGPPATAPGGRGHSHRDRIHYQADVRLEATEEIYLTPVQRPPDPAEPTSTFMPPTESRMSVSSDPDPAAYSVTAGRPHPSISEEDEGFDCLSSPERAEPPGGGWRGSLGEPPPPPRASLSSDTSALSYDSVKYTLVVDEHAQLELVSLRPCFGDYSDESDSATVYDNCASASSPYESAIGEEYEEAPQPRPPTCLSEDSTPDEPDVHFSKKFLNVFMSGRSRSSSAESFGLFSCVINGEEHEQTHRAIFRFVPRHEDELELEVDDPLLVELQAEDYWYEAYNMRTGARGVFPAYYAIEVTKEPEHMAALAKNSCVLEISVRGVKIGVKADDALEAKGNKCSHFFQLKNISFCGYHPKNNKYFGFITKHPADHRFACHVFVSEDSTKALAESVGRAFQQFYKQFVEYTCPTEDIYLE

By UniProt entry, the sequences of proteins in these tests, tags left out. Where a name states a change or a piece, a line headed by the entry shows the natural chain unless it says otherwise. Chains listed by the source or under a name are the forms on record and can include a tag or linker. Residues count along the entry.
Flag epitope-tagged JNK1 (cell lysate) (P45983-2, form named): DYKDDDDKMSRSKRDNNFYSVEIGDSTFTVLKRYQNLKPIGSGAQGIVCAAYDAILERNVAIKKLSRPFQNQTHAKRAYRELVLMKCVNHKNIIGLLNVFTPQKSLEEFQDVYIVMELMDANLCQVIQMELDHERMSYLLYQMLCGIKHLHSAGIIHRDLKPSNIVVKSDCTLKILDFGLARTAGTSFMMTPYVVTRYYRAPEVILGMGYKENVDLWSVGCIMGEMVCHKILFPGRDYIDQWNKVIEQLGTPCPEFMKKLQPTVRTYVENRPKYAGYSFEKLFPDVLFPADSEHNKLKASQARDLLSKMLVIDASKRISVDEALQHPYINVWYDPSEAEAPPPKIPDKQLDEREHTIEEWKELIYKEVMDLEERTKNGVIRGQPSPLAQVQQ
HA-JNK1 (epitope (HA) tagged JNK1) (P45983-2, form named): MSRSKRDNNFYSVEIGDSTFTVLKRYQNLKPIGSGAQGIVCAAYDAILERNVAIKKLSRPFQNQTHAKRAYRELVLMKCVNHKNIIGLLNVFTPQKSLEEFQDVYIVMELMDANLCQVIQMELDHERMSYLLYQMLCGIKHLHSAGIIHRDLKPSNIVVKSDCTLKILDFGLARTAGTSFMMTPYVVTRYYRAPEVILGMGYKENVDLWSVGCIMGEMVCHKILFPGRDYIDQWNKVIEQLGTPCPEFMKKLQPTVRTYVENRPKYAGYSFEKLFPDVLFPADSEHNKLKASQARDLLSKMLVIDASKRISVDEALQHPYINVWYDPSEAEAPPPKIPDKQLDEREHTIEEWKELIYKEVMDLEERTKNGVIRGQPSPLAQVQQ
UniProt P05412, residues 1-79: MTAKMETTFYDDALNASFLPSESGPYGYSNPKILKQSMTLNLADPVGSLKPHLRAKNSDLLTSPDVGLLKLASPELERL

No constants are given. Whether binding was seen depends on the method and setting. In cells and extracts the contact can be indirect. Some entries that bind do so weakly or less than the wild type. Where a sequence is shown, tags or fusion partners need not be part of it.

The first test deals with T1, Flag epitope-tagged JNK1 (cell lysate) (human, UniProt P45983-2 1-384, limits assumed).
T1 construct: written N-terminal here
The experiment in a line: GST pull-down from cell lysate, immunoblot. Background: Immunoblotting shows a protein as a band on a membrane.
For the molecule PKRPTTLNLFPQVPRSQDTLNNNSLGKKHSWQDRVSRSSSPLKTGEQTP (peptide, not shown: a dimerising Fc or GST) [GST fusion protein containing residues 154-202 of JIP-1], the binding entry was “binds”.
For B1, the binding entry is on record as “binds”.
B2: the binding result was “binds”.
With B3, the binding result is reported as “binds”.

The target of a further test is T1, Flag epitope-tagged JNK1 (cell lysate). The experiment in a line: GST pull-down from cell lysate, anti-Flag (M2) immunoblot. How it is done: To test whether JIP-1 binding to JNK is also isoform-dependent, a binding assay was utilized. Cell lysates (1 ml in TLB) containing JNK1, JNK2, or p38 MAP kinase, each tagged with the Flag epitope, were incubated with 5 μg GST-fusion proteins pre-bound to 10 μl glutathione-Sepharose. […] The GST-ATF2 fusion protein contains residues 1-109 of ATF2, and the GST-Jun fusion protein contains residues 1-79 of c-Jun. After incubation for one hour at 4° C. and three washes with TLB, bound proteins were detected by protein immunoblot analysis with the M2 monoclonal antibody, which is specific for the Flag epitope. Dérijard, et al., supra; Sluss et al., supra; Gupta et al., supra. When ATF2 or c-jun GST fusion proteins were used in this assay, binding to JNK1 was greater than binding to JNK2. This finding is consistent with the results of previous studies. […] The level of binding of these fusion proteins to JNK1 was similar to the level of binding to JNK2.
Regarding “GST-Jun fusion protein (residues 1-79 of c-Jun) (from UniProt P05412 1-79)”, the binding result is recorded as “binds”.
Consider B1, for which the binding result is “binds”.
For the molecule B4, the binding entry is listed as “binds”.
Consider B5, for which the binding result is listed as “binds”.

A further test has as its target HA-JNK1 (epitope (HA) tagged JNK1) (UniProt P45983). Kind of test: co-immunoprecipitation from transfected COS-1 cells, immunoblot.
Regarding B6, the binding result is given as “binds”.

(Values after patent US20070003517A1 (UNIVERSITY OF MASSACHUSETTS, published 2007).)
